Source: publication doi:10.1101/2023.02.23.529725
Results are given in words; binding and its absence hold for the method and conditions named. In cells and extracts the contact can be indirect. Some entries that bind do so weakly or less than the wild type. Where a sequence is shown, tags or fusion partners need not be part of it.

The chains behind the UniProt entries cited, without tags or fusion partners. Residues count along the entry.
UniProt Q84WU8, residues 84-809: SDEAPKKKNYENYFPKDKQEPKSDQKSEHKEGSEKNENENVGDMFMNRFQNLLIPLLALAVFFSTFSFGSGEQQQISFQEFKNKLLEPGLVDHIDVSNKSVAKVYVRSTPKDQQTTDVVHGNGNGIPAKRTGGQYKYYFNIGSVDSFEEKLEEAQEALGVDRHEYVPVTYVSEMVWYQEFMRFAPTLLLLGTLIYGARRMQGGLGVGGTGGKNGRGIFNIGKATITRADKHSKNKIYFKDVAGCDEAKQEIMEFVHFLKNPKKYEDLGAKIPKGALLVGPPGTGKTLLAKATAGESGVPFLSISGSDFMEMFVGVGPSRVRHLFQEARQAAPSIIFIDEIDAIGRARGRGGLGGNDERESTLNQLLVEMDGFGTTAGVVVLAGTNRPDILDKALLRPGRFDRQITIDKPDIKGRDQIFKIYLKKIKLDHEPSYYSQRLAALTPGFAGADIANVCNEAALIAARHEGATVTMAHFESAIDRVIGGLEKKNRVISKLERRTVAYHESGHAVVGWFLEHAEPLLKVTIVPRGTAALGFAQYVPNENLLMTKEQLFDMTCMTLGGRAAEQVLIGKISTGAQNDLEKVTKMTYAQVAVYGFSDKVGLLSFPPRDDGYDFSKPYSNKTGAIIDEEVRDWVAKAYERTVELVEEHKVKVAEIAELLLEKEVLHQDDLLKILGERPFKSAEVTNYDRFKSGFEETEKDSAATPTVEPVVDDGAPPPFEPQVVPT
UniProt O80983, residues 54-717: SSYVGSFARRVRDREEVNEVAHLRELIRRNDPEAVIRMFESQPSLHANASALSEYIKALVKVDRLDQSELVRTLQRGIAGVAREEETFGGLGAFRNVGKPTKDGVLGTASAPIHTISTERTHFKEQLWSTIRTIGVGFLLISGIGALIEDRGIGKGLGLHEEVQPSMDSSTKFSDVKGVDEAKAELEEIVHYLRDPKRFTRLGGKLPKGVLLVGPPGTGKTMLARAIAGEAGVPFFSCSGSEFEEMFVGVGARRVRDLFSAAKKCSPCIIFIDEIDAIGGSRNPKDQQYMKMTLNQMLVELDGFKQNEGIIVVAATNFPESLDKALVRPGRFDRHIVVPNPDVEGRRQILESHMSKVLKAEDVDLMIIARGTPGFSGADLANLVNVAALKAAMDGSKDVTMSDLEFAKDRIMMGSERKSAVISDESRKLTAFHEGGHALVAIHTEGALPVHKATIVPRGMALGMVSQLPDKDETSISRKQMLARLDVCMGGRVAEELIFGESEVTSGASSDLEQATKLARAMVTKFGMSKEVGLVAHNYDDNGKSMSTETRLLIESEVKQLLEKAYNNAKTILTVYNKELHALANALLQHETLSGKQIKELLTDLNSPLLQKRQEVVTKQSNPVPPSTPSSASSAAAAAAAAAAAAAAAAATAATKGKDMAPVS
UniProt O82663, residues 33-634: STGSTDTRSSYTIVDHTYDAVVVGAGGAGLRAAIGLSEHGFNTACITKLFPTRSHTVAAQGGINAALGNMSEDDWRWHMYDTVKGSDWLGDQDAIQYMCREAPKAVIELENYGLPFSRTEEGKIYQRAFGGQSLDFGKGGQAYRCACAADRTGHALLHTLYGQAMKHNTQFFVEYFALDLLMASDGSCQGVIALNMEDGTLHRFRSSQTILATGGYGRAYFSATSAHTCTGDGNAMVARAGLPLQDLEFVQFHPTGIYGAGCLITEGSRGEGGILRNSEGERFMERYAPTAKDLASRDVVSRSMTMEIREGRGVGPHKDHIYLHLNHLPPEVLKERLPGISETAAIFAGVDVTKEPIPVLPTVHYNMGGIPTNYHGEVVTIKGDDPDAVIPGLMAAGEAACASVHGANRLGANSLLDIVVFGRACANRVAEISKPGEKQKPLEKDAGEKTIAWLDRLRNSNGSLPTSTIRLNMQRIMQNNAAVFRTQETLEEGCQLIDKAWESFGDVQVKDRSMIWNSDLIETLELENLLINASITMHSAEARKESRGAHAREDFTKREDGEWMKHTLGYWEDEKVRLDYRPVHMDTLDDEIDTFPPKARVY

T1: FLAG-tagged CI subunit B14.7 (B14.7^FLAG) (Arabidopsis (Col-0)) (UniProt O48528)
T1 sequence: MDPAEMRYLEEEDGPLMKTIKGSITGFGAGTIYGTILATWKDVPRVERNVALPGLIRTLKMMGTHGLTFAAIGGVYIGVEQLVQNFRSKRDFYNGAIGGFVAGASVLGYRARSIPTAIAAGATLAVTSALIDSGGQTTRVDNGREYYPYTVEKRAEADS

B1: NAD1 complex I subunit (protein, UniProt P92558 1-325)
chain: MYIAVPAEILGIILPLLLGVAFLVLAERKVMAFVQRRKGPDVVGSFGLLQPLADGLKLILKEPISPSSANFFLFRMAPVATFMLSLVAWAVVPFDYGMVLSDLNIGLLYLFAISSLGVYGIIIAGWSSISKYAFLGALRSAAQMVSYEVSIGLILITVLICVGSCNLSEIVMAQKQIWFGIPLFPVLVMFFISCLAETNRAPFDLPEAEAELVAGYNVEYSSMGFALFFLGEYANMILMSGLCTLFFLGGWLPILDLPIFKKIPGSIWFSIKVLFFLFLYIWVRAAFPRYRYDQLMGLGWKVFLPLSLARVVPVSGLLVTFQWLP
B2: COX2 (complex IV subunit) (protein, UniProt P93285 1-260)
chain: MIVLKWLFFTISPCDAAEPWQLGFQDAATPIMQGIIDLHHDIFFFLILILVFVLWILVRALWHFHYKKNAIPQRIVHGTTIEILWTIFPSIILMFIAIPSFALLYSMDEVVVDPAITIKAIGHQWYWTYEYSDYNSSDEQSLTFDSYMIPEEDLELGQLRLLEVDNRVVVPAKTHLRIIVTSADVLHSWAVPSLGVKCDAVPGRLNQISILVQREGVYYGQCSEICGTNHAFMPIVVEAVSRKDYGSWVSNQLIPQTGEA
B3: Translocase of the outer membrane TOM40 (protein, UniProt Q9LHE5 1-309)
chain: MADLLPPLTAAQVDAKTKVDEKVDYSNLPSPVPYEELHREALMSLKSDNFEGLRFDFTRALNQKFSLSHSVMMGPTEVPAQSPETTIKIPTAHYEFGANYYDPKLLLIGRVMTDGRLNARLKADLTDKLVVKANALITNEEHMSQAMFNFDYMGSDYRAQLQLGQSALIGATYIQSVTNHLSLGGEIFWAGVPRKSGIGYAARYETDKMVASGQVASTGAVVMNYVQKISDKVSLATDFMYNYFSRDVTASVGYDYMLRQARVRGKIDSNGVASALLEERLSMGLNFLLSAELDHKKKDYKFGFGLTVG

molecular target: T1, FLAG-tagged CI subunit B14.7 (B14.7^FLAG) (Arabidopsis (Col-0)); assay: co-IP

Molecule | binding
FTSH3 (Filamentous Temperature Sensitive H3), endogenous (from UniProt Q84WU8 84-809) (enzyme) | binds
FTSH4, endogenous (from UniProt O80983 54-717) (enzyme) | no binding
SDH1 (complex II subunit) (from UniProt O82663 33-634) | no binding
B1 | binds
B2 | no binding
B3 | no binding
